Reference: paper PMC12670160, “A drug-repurposing screen of FDA- and EMA-approved drugs identifies two NF-κB inhibitors active against eumycetoma” (Journal of Antimicrobial Chemotherapy, 2025)
Structures can show the parent of a compound that is named as a salt. In all, about 5,300 compounds went through this assay and about 130 (2.5%) showed an effect of 50% or more. The list shows a part of the results.

These molecules were tested on M. mycetomatis strain mm55. Conditions: primary screen, metabolic activity vs growth control; 96 h, 2 µM; inhibitor.

Row | SMILES | % viability [%]
1 | [H]/N=C(\N/C(=N/[H])Nc1ccc(Cl)cc1)NC(C)C [ONC0002393, chloroguanide hydrochloride] | 99.65
2 | CCCCCCN(CCCCCC)C(=O)Cc1c(-c2ccc(Cl)cc2)[nH]c2ccc(Cl)cc12 [ONC0002645, fgin143] | 79.58
3 | COc1ccc(CCN(C)CCCOc2ccc(S(=O)(=O)c3c(C(C)C)c4ccccc4n3C)cc2)cc1OC [ONC0004278, sr33805 oxalate] | 80
4 | COc1cc(C)c2c(Oc3cccc(C(F)(F)F)c3)c(OC)cc(NC(C)CCCN)c2n1 (stereo not shown) [ONC0005464, tafenoquine] | 90.07
5 | NCCCCCCCCCCNS(=O)(=O)c1cccc2c(Cl)cccc12 [ONC0002708, a7] | 47.48
6 | C#C[C@]1(O)CC[C@H]2[C@@H]3CCC4=CCCC[C@@H]4[C@H]3C(=C)C[C@@]21CC [ONC0005535, desogestrel] | 146.6
7 | CC(C)C(=O)Nc1ccc([N+](=O)[O-])c(C(F)(F)F)c1 [ONC0003182, flutamide] | 96.12
8 | OC[C@H]1O[C@@H](n2cnc3c(NC4CCCC4)nc(Cl)nc32)[C@H](O)[C@@H]1O [ONC0003057, 2chloron6cyclopentyladenosine] | 61.63
9 | CC(C)NC(=O)c1ccc(C#Cc2ccncc2)cn1 [ONC0003042, lsn2463359] | 112.3
10 | CC(=O)Oc1cc2c(s1)CCN(C(C(=O)C1CC1)c1ccccc1F)C2 (stereo not shown) [ONC0001894, prasugrel] | 72.97
11 | CS(=O)(=O)N(Cc1ccco1)CC(O)Cn1c2ccccc2c2ccccc21 (stereo not shown) [ONC0000142, kl001] | 116.3
12 | CC(O)CCCCn1c(=O)c2c(ncn2C)n(C)c1=O (stereo not shown) [ONC0005607, ü¾Œ–ˆ¼lisofylline] | 79.45
13 | CO/N=C(\C(=O)N[C@@H]1C(=O)N2C(C(=O)O)=C(C)CS[C@H]12)c1csc(N)n1 [ONC0005489, cefetamet] | 95.62
14 | S=C(NCc1ccc2c(c1)OCO2)N1CCN(c2ncnc3c2oc2ccccc23)CC1 [ONC0004908, amuvatinib mp470] | 75.33
15 | OCCN1C[C@H](O)[C@@H](O)[C@H](O)[C@H]1CO [ONC0003900, miglitol] | 63.13
16 | CCC(=O)NC1CCc2cccc(OC)c2C1 (stereo not shown) [ONC0000834, 8mpdot] | 64.2
17 | C[n+]1ccccc1CN=O [ONC0005627, pralidoximechloride] | 80.2
18 | CCCC1(CCC)CCC2(CCN(CCCN(CC)CC)C2)CC1 [ONC0001653, atiprimod] | 63.1
19 | CC1=CC[C@@H](C(C)(C)O)C[C@@H]1O [ONC0004123, sobrepin] | 88.87
20 | C[C@H](c1ccc(F)cc1CCCC(=O)O)N(c1cc(F)ccc1F)S(=O)(=O)c1ccc(Cl)cc1 [ONC0004701, bms 299897] | 117.6

Row | SMILES | % viability [%]
21 | N[C@@H](Cc1cc(-c2ccc(Cl)cc2Cl)cc(CP(=O)(O)O)c1O)C(=O)O [ONC0001482, sdz220040] | 68.11
22 | CC1(C)CCC2=C(O1)c1ccccc1C(=O)C2=O [ONC0001111, lapachone] | 52.37
23 | COc1cc(Oc2ccnc3cc(OC)c(OC)cc23)ccc1NC(=O)NC(C)c1nccs1 (stereo not shown) [ONC0002728, ki20227] | 85.43
24 | CCOC(=O)[C@@]1(CCCCCCOc2ccc(Cl)cc2)CO1 [ONC0001271, etomoxir] | 56.3
25 | CC(C)(C)c1cc(OC(=O)c2cccs2)ccc1O [ONC0003805, 2methoxyphenyl 24isobutylphenylpropanoate] | 77.07
26 | COc1cc(OC)c(C(=O)CCCCN2CCC3(CC2)NC(=O)NC3=O)cc1NS(=O)(=O)c1ccc(C(F)(F)F)cc1 [ONC0002710, rs102221] | 67.76
27 | Cn1c(Nc2ccc(C(F)(F)F)cc2)nc2cc(Oc3ccnc(-c4ncc(C(F)(F)F)[nH]4)c3)ccc21 [ONC0005005, raf265 chir265] | 41.37
28 | NC(=O)c1cnc2[nH]ccc2c1N[C@@H]1C2C[C@@H]3C[C@H]1C[C@](O)(C2)C3 [ONC0004336, peficitinib asp015k jnj54781532] | 124.4
29 | COC(=O)C1=C(C)NC(C)=C(C(=O)OC(C)C)C1c1cccc2nonc12 (stereo not shown) [ONC0001749, isradipine] | 95.55
30 | O=C1OC(OC(=O)c2cccnc2Nc2cccc(C(F)(F)F)c2)c2ccccc21 (stereo not shown) [ONC0002996, talniflumate] | 108.3
31 | O=C(O)c1cc(N2N=C(C(F)(F)F)/C(=C/c3ccc(-c4ccccc4)o3)C2=O)ccc1Cl [ONC0000997, en460] | 106.5
32 | CC(=O)SCC(Cc1ccccc1)C(=O)NCC(=O)OCc1ccccc1 (stereo not shown) [ONC0004207, racecadotril] | 101.8
33 | C[C@H](CCC(=O)O)[C@H]1CC[C@H]2[C@@H]3CC[C@@H]4C[C@H](O)CC[C@]4(C)[C@H]3CC[C@]12C [ONC0004527, lithocholic acid] | 65.89
34 | N[C@@H](CSCCCO)C(=O)O [ONC0004725, fudosteine] | 82.66
35 | COc1ccc(C(CN(C)C)C2(O)CCCCC2)cc1 (stereo not shown) [ONC0002399, venlafaxine hydrochloride] | 83.11
36 | O=C(/C=C/N1C[C@H]2C[C@@H]1CN2c1ccccn1)c1ccccc1O [ONC0004408, pfi3] | 134.3
37 | CC1COc2c(N3CCN(C)CC3)c(F)cc3c(=O)c(C(=O)O)cn1c23 (stereo not shown) [ONC0003885, ofloxacin] | 77.75
38 | N[C@@H](C(=O)O)[C@@H](OCc1ccccc1)C(=O)O.N[C@H](C(=O)O)[C@H](OCc1ccccc1)C(=O)O [ONC0000803, tboadl] | 62.99
39 | COCC(=O)Nc1c(I)c(C(=O)NCC(O)CO)c(I)c(C(=O)N(C)CC(O)CO)c1I (stereo not shown) [ONC0002916, iopromide] | 66.94
40 | CC(C)(C(=O)O)c1ccc(C(=O)CCCN2CCC(OC(c3ccccc3)c3ccccc3)CC2)cc1 [ONC0002774, carebastine] | 121.8

No new results follow: an excerpt of the list.
Row | SMILES | % viability [%]
31 | O=C(O)c1cc(N2N=C(C(F)(F)F)/C(=C/c3ccc(-c4ccccc4)o3)C2=O)ccc1Cl [ONC0000997, en460] | 106.5
32 | CC(=O)SCC(Cc1ccccc1)C(=O)NCC(=O)OCc1ccccc1 (stereo not shown) [ONC0004207, racecadotril] | 101.8
33 | C[C@H](CCC(=O)O)[C@H]1CC[C@H]2[C@@H]3CC[C@@H]4C[C@H](O)CC[C@]4(C)[C@H]3CC[C@]12C [ONC0004527, lithocholic acid] | 65.89
34 | N[C@@H](CSCCCO)C(=O)O [ONC0004725, fudosteine] | 82.66
35 | COc1ccc(C(CN(C)C)C2(O)CCCCC2)cc1 (stereo not shown) [ONC0002399, venlafaxine hydrochloride] | 83.11
36 | O=C(/C=C/N1C[C@H]2C[C@@H]1CN2c1ccccn1)c1ccccc1O [ONC0004408, pfi3] | 134.3
37 | CC1COc2c(N3CCN(C)CC3)c(F)cc3c(=O)c(C(=O)O)cn1c23 (stereo not shown) [ONC0003885, ofloxacin] | 77.75
38 | N[C@@H](C(=O)O)[C@@H](OCc1ccccc1)C(=O)O.N[C@H](C(=O)O)[C@H](OCc1ccccc1)C(=O)O [ONC0000803, tboadl] | 62.99
